These are yes or no findings as the source states them, for the method shown. Some results given as binding are weak or reduced against the parent protein; the word gives no strength. Sequences can lack the tags named with a protein.
Target: T1, SUV39H1 with an N-terminal His6-MBP tag (UniProt O43463)
T1 sequence: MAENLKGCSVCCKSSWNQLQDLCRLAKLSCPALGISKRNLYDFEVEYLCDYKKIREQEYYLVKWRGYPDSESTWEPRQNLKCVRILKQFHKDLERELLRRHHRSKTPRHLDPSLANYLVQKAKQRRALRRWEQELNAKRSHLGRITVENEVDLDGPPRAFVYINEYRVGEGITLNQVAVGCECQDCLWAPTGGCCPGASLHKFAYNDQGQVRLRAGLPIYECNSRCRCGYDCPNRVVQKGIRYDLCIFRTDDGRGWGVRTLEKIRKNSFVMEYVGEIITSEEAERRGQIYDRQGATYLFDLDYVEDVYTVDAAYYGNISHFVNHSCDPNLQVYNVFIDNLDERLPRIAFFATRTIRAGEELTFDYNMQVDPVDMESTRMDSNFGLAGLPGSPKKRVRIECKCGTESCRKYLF
Assay: co-purification

By UniProt entry, the sequences of proteins in these tests, tags left out.
UniProt P83916, whole entry: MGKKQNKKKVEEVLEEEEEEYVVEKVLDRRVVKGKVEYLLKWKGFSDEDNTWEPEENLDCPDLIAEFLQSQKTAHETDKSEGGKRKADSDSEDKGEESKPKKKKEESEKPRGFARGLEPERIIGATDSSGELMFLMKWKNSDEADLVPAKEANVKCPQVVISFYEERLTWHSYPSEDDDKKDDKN

binding: binds
Substance: HP1β (from UniProt P83916 1-185)
